In the supplement of paper PMC10849652:
The list shows a part of the results.

Sequences of proteins named here, by UniProt entry; tags and fusion partners are left off. A change or cut given only in a name is not applied to a line headed by its entry.
UniProt Q96FZ7: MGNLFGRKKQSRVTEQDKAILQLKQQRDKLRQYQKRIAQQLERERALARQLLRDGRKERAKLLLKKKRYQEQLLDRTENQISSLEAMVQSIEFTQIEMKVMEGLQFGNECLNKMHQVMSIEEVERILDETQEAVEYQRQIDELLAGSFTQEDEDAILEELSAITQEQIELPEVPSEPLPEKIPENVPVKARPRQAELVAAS
UniProt O75122: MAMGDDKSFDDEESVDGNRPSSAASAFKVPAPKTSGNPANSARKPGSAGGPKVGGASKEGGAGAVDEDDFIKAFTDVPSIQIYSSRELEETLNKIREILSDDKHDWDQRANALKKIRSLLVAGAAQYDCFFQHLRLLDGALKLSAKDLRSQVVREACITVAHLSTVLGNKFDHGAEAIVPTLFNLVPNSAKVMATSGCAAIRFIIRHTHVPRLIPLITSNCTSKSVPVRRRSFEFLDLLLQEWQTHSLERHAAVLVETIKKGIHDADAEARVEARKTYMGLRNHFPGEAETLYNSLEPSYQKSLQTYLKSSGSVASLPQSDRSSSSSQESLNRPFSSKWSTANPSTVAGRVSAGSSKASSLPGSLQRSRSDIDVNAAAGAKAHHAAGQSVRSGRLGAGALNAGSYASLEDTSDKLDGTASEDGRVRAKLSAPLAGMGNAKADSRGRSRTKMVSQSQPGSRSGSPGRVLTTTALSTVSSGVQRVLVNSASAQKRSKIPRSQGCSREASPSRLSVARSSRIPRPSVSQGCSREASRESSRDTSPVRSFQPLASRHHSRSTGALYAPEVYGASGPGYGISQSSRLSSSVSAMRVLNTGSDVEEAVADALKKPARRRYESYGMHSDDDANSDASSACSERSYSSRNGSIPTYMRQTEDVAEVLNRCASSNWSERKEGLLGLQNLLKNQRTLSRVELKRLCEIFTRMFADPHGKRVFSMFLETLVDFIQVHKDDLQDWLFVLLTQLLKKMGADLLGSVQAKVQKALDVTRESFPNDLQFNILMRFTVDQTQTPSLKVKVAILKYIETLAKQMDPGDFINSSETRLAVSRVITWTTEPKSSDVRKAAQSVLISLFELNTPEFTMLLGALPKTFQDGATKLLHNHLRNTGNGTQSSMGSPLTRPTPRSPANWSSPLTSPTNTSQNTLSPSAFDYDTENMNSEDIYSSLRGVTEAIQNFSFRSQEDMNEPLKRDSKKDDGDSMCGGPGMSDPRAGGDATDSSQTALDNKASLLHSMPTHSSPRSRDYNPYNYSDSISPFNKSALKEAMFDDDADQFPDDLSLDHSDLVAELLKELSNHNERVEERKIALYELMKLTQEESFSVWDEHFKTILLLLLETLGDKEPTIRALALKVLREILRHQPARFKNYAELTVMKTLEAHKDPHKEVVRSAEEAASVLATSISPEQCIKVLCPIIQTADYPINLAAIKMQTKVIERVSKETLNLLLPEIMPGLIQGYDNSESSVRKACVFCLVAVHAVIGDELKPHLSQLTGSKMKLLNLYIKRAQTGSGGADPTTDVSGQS
UniProt Q13286: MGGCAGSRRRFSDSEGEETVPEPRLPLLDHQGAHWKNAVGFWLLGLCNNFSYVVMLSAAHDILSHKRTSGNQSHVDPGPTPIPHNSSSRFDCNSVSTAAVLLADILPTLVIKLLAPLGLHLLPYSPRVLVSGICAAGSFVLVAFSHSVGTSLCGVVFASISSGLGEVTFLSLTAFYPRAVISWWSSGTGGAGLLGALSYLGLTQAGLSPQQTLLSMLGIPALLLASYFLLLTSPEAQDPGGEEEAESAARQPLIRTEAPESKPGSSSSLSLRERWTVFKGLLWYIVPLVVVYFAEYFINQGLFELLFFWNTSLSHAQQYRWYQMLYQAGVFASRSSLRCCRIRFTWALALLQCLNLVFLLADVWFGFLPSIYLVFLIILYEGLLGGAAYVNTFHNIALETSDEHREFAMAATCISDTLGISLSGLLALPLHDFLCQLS
UniProt P56277: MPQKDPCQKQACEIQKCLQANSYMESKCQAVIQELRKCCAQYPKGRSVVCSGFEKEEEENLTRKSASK
UniProt O94985: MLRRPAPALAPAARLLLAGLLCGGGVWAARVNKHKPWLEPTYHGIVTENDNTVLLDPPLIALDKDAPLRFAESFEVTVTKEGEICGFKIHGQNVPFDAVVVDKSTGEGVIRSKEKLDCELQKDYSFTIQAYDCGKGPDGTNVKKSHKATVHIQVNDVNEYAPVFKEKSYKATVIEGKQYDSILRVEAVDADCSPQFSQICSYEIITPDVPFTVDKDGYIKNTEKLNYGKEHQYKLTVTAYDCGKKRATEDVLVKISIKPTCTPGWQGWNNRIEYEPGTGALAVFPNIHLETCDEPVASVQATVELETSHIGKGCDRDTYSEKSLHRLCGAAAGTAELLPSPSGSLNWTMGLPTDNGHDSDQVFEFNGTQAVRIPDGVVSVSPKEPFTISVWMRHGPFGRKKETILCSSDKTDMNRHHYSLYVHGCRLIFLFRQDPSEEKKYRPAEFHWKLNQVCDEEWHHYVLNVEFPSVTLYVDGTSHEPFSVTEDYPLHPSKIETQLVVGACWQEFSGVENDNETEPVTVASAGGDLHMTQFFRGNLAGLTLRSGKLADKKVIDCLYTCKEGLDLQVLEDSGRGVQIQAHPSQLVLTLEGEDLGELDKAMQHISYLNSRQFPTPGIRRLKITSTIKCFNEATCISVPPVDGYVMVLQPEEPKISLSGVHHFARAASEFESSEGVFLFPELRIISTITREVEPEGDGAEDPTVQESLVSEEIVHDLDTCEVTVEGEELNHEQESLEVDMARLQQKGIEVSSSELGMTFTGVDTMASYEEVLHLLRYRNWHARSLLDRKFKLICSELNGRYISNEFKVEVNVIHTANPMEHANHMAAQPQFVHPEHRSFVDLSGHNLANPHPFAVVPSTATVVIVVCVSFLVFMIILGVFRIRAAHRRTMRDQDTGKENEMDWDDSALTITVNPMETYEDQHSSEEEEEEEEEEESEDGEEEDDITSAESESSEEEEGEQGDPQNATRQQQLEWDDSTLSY

What was measured:
Test in all cases: log2 fold change, soluble protein after heating vs DMSO (PISA); higher = thermal stabilisation; K562 lysate, 10 uM; active = over 0.2 and 3.5 SD of the protein, either way, in both replicates (recomputed)
nilotinib = compound: Cc1cn(-c2cc(NC(=O)c3ccc(C)c(Nc4nccc(-c5cccnc5)n4)c3)cc(C(F)(F)F)c2)cn1 [nilotinib]
Outline: (§1)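 K562 pellets were dounce-homogenised in PBS pH 7.4 with 1 mM MgCl2, and the crude extract at 1 mg/mL protein was treated with 10 μM compound for 30 min. Aliquots were heated for 3 min across 48°C-58°C, pooled, and brought to 0.5% NP-40 at 4°C; soluble protein was the supernatant after 21,000xg for 90 min. Soluble protein was quantified by TMTpro 16plex LC-MS/MS with channel sums equalised, and reported as log2 fold change in thermal stability against DMSO controls, with values from duplicates.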

[1] = compound: Cc1nc(Nc2n[nH]c3c2CN(C(=O)N[C@H](CN(C)C)c2ccccc2)C3(C)C)c2sccc2n1
Outline: as §1

dasatinib = compound: Cc1nc(Nc2ncc(C(=O)Nc3c(C)cccc3Cl)s2)cc(N2CCN(CCO)CC2)n1 [dasatinib]
Outline: as §1

[2] = compound: Cc1ncc(-c2ccnc(Nc3ccc(S(C)(=O)=O)cc3)n2)n1C(C)C
Outline: as §1

[3] = compound: Cn1cc(-c2ccc3c(c2)CCN3C(=O)Cc2cccc(C(F)(F)F)c2)c2c(N)ncnc21
Outline: as §1

quisinostat = compound: Cn1cc(CNCC2CCN(c3ncc(C(=O)NO)cn3)CC2)c2ccccc21 [quisinostat]
Outline: as §1

tipifarnib = compound: Cn1cncc1[C@@](N)(c1ccc(Cl)cc1)c1ccc2c(c1)c(-c1cccc(Cl)c1)cc(=O)n2C [tipifarnib]
Outline: as §1

[4] = compound: NC(=O)Nc1cc(-c2cccc(F)c2)sc1C(=O)N[C@H]1CCCNC1
Outline: as §1

[5] = compound: NC(=O)c1cnc(N[C@@H]2CCCC[C@@H]2N)nc1Nc1cccc(-n2nccn2)c1
Outline: as §1

[6] = compound: NC1(c2ccc(-c3nc4ccn5c(=O)[nH]nc5c4cc3-c3ccccc3)cc2)CCC1
Outline: as §1

Measured: log2 fold change

CHMP6 (UniProt Q96FZ7)
inactive: nilotinib 0.141 | [1] 0.04 | dasatinib -0.011 | [2] -0.029 | [3] 0.001 | quisinostat -0.02 | tipifarnib -0.006 | [4] -0.043 | [5] -0.065 | [6] 0.035

CLASP2 (UniProt O75122)
inactive: nilotinib 0.013 | [1] -0.14 | [2] -0.061 | quisinostat -0.135 | tipifarnib -0.242 | [4] -0.058 | [5] 0.205

CLN3 (UniProt Q13286)
inactive: nilotinib -0.1 | [1] -0.074 | dasatinib -0.043 | [2] -0.028 | [3] 0.041 | tipifarnib -0.056 | [5] 0.037 | [6] 0.001

CMC4 (UniProt P56277)
inactive: nilotinib 0.168 | [1] 0.001 | [2] -0.221 | quisinostat 0.023 | tipifarnib -0.105 | [4] 0.033 | [5] 0.045 | [6] -0.061

CLSTN1 (UniProt O94985)
inactive: nilotinib -0.156 | [1] -0.044 | [2] 0.211 | quisinostat 0.094 | tipifarnib -0.018 | [4] -0.075 | [5] -0.102
